Results are given in words; binding and its absence hold for the method and conditions named. In cells and extracts the contact can be indirect. Some results given as binding are weak or reduced against the parent protein; the word gives no strength.
T1: Synaptophysin-like protein 1 (SYPL1) (mouse (endogenous in testis)) (UniProt O09117)
T1 sequence: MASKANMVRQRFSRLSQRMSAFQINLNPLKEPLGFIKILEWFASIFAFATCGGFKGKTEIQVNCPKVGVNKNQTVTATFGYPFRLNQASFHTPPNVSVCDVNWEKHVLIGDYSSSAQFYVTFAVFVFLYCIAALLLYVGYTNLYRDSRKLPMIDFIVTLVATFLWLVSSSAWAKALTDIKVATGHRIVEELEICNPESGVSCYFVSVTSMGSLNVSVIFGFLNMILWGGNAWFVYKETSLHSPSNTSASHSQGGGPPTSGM

The chains behind the UniProt entries cited, without tags or fusion partners.
UniProt P63024: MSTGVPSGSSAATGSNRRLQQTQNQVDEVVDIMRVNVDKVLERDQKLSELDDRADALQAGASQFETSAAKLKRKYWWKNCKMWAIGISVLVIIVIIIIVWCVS

B1: Synaptophysin-like protein 1 (SYPL1) (protein, UniProt O09117 1-261)
chain: T1 sequence

Assays:
[1] = target: T1, Synaptophysin-like protein 1 (SYPL1) (mouse (endogenous in testis)); experiment: co-IP; WT mouse testes lysed in 1% NP40 buffer with protease inhibitor and 1 mM PMSF; precleared lysate incubated with anti-SYPL1 rabbit monoclonal or anti-VAMP3 rabbit polyclonal antibody overnight at 4 °C; protein-A-agarose beads; Western blot
[2] = target: vesicle associated membrane protein 3 (VAMP3) (mouse (endogenous in testis)) (UniProt P63024); experiment: as above

| Molecule | binding [1] | binding [2] |
| --- | --- | --- |
| vesicle associated membrane protein 3 (VAMP3) (from UniProt P63024 1-103) | binds |  |
| B1 |  | binds |

Source: paper PMC10444883
